# In PubChem BioAssay AID504834 (National Center for Advancing Translational Sciences (NCATS), 2011):
# The whole screen tested about 320,000 compounds, of which about 22,000 (6.9%) were called active. Inconclusive means that the source gave no clear call. Such entries were picked first, then a sample of the others. Calls follow the shape of the dose curve; as a rule, active = well fitted inhibition curve with a large enough effect; inconclusive = small, poorly fitted or top-dose-only effect, or another doubt; inactive = no such curve, though single readings can be large or run the other way. Potencies of inconclusive entries are doubtful fits and often do not repeat.
# Test: Primary qHTS for delayed death inhibitors of the malarial parasite plastid, 96 hour incubation
# Conditions: P. falciparum luciferase reporter growth; series mostly up to 28.7 µM; activity change, negative = inhibition: at the top concentration
# Method in brief: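 Readout is luminescence from an integrated firefly luciferase in P. falciparum. Red cells, 2% hematocrit and 0.05% parasitemia final, were cultured with compound through two parasite generations (96 hours) at 37 C, 5% CO2.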
# % is scaled to controls: 0 for no effect and ±100 for the full control effect; potency is read from the fitted curve at half-maximal effect.
SMILES,Potency,"activity change, negative = inhibition"
Oc1ccc(Nc2ccnc3cc(Cl)ccc23)cc1,active: 1.85 µM,
CCOC(=O)c1cc(C)sc1NC(=O)CSC1=NCCS1,active: 9.28 µM,
O=C(COC(=O)c1ccc(S(=O)(=O)NCc2ccco2)cc1)NC1CCCCC1,,inactive: 10.5%
Nc1nc(NCCCN2CCOCC2)nc(Nc2cccc(Cl)c2)c1[N+](=O)[O-],"inconclusive: 18.5 µM [inhibitor, single point]",
Cc1ccn(CC(=O)N/N=C/c2cc([N+](=O)[O-])ccc2O)n1,"inconclusive: 18.5 µM [inhibitor, single point]",
COc1ccc(-c2[nH]c(-c3cc(OC)c4c(c3)OCO4)nc2-c2ccccc2)cc1,"inconclusive: 1.65 µM [inhibitor, full curve, poor fit]",
Clc1ccc(-c2c[n+](Cc3cccc(Cl)c3)c3n2CCC3)cc1,active: 0.262 µM,
COc1cccc(/C=C/C(=O)Nc2ccc(C(=O)Nc3cccc(S(N)(=O)=O)c3)cc2)c1OC,,inactive: -13.2%
COc1cc2c(C(=O)NCc3ccc4c(c3)OCO4)cn(CC(C)C)c(=O)c2cc1OC,,inactive: -10%
Cc1ccc(COc2ccc(CNCCCN3CCCCCC3=O)cc2)cc1,,inactive: 0.216%
COc1ccc(NS(=O)(=O)c2ccc(NC(=O)Cc3cccs3)cc2)cc1,"inconclusive: 14.7 µM [inhibitor, single point]",
Cc1ccc(C(C)C)c(OCCCN2C(=O)NC(C)(C)C2=O)c1,"inconclusive: 10.4 µM [inhibitor, partial curve, poor fit]",
O=C(COc1ccc2cc(Br)ccc2c1Br)N1CCOCC1,,inactive: -2.75%
O=S(=O)(c1cccc2nsnc12)N1CCNCC1,,inactive: 47.5%
Cc1c(C(=O)N2CC3(CC(c4cccc(NC(=O)CC(c5ccccc5)c5ccccc5)c4)=NO3)C[C@@H]2C(N)=O)cc([N+](=O)[O-])cc1[N+](=O)[O-] (some centres undefined),"inconclusive: 11.7 µM [inhibitor, single point]",
COCCN=c1scc(-c2ccc3c(c2)NC(=O)CO3)n1/N=C(\C)c1ccc(O)cc1,"inconclusive: 13.1 µM [inhibitor, single point]",
O=C(CCN1C(=O)C2CCCCC2C1=O)NNC(=O)c1cccc(Cl)c1 (centres undefined),,inactive: -23.5%
O=C(CCS(=O)(=O)c1ccccc1)N1CCOCC1,,inactive: -15.3%
O=C(CCc1ccccc1)NC(=S)Nc1ccccc1[N+](=O)[O-],"inconclusive: 18.5 µM [inhibitor, single point]",
Cc1cccc(N(C(=O)c2sc(C)nc2C)C(C(=O)NCc2ccco2)c2ccccc2)c1 (centres undefined),"inconclusive: 16.5 µM [inhibitor, single point]",
COc1cccc(-c2cc(N)nn2C(=O)Nc2ccc(Cl)cc2)c1,active: 11.7 µM,
OCC1(Cc2ccccc2)CCCN(Cc2ccc(-c3ccco3)cc2)C1 (centres undefined),"inconclusive: 11.7 µM [inhibitor, single point]",
Cc1cc2c(C(F)(F)F)cc(=O)oc2c2c1NCCC2,"inconclusive: 9.28 µM [inhibitor, partial curve]",
CCOC(=O)C1CCN(Cc2nc3ccccc3c(=O)n2-c2ccc(F)cc2)CC1,"inconclusive: 5.86 µM [inhibitor, partial curve, poor fit]",
O=c1[nH]cnc2scc(-c3ccc(F)cc3)c12,,inactive: 1.44%

# Single values from the results shown.
# Potency, `Cc1ccn(CC(=O)N/N=C/c2cc([N+](=O)[O-])ccc2O)n1` reads inconclusive: 18.5 µM [inhibitor, single point]
# Potency, `COc1ccc(-c2[nH]c(-c3cc(OC)c4c(c3)OCO4)nc2-c2ccccc2)cc1` reads inconclusive: 1.65 µM [inhibitor, full curve, poor fit]

# (continued)

SMILES,Potency,"activity change, negative = inhibition"
Cn1nc(C(=O)Nc2cccc(S(=O)(=O)N3CCCCC3)c2)c2ccccc2c1=O,active: 9.28 µM,
CCCc1nnc(NC(=O)CCC(=O)NC2CC2)s1,,inactive: 6.55%
CN(C(=O)c1ccc(COc2ccccc2Cl)o1)c1ccccc1,"inconclusive: 13.1 µM [inhibitor, single point]",
CC(=O)c1nn(-c2cccc(Br)c2)cc1C(=O)c1ccc(C)cc1,,inactive: -15%
COc1ccc(/C=C/C(=O)C2(O)CCCCC2)cc1,,inactive: -8.92%
COc1ccccc1C(=O)NNC(=O)c1ccccc1Br,active: 10.4 µM,
COC(=O)c1sccc1NC(=O)Nc1ccc(F)cc1,,inactive: -12.2%
COc1cc(NC2CCCCC2O)c2nc(-c3ccc(Cl)cc3)ccc2c1 (centres undefined),active: 1.85 µM,
Cc1ccc(C(=O)NCc2ccc3c(c2)OCO3)c(C)c1,"inconclusive: 11.7 µM [inhibitor, single point]",
O=C(C(=O)N1CCN(c2cccc(Cl)c2)CC1)N1CCCCC1,,inactive: 0.976%
Cc1cccc(N(Cc2ccccc2)C(=O)c2cc(S(=O)(=O)N3CCOCC3)ccc2Cl)c1,"inconclusive: 5.86 µM [inhibitor, single point]",
COC(=O)C1=C(c2cccc3c2S(=O)(=O)c2ccccc2-3)C[C@@H]2CC[C@H]1N2C(=O)N1CCc2cc(OC)c(OC)cc2C1,"inconclusive: 0.928 µM [inhibitor, full curve, poor fit]",
COc1ccc(C2NC(=O)CCC2[N+](=O)[O-])c(OC)c1OC (centres undefined),"inconclusive: 18.5 µM [inhibitor, single point]",
O=c1c2cc(N3CCOCC3)ccc2[nH]c(=S)n1CCN1CCCC1,"inconclusive: 5.22 µM [inhibitor, partial curve, poor fit]",
N#Cc1c(-c2ccccc2)cc(C2CC2)nc1SCC(=O)c1cccs1,"inconclusive: 13.1 µM [inhibitor, single point]",
O=c1cc(CCl)[nH]c2nc3ccccc3n12,,inactive: 44.9%
CC(=O)[C@H]1CC[C@H]2[C@@H]3C[C@H](C)C4=CC(=O)CC[C@]4(C)[C@H]3[C@@H](O)C[C@]12C,"inconclusive: 4.15 µM [inhibitor, partial curve]",
O=C(CSCC(=O)N1CCCCC1)Nc1nc(-c2cccs2)cs1,,inactive: 32.3%
Cc1ccc(/C=N/n2c(C)cc(C)c(C#N)c2=O)cc1,active: 14.7 µM,
COc1ccc(N2C(=O)C3C4C=CC(CC4)C3C2=O)c([N+](=O)[O-])c1 (centres undefined),,inactive: 6.23%
COc1cc2ccccc2cc1C(=O)NC(=S)Nc1cccc(C(=O)O)c1,,inactive: -6.55%
CSc1ccccc1C(=O)Nc1cccc(C)c1,,inactive: 3.76%
CCOC(=O)OC(C)OC1=C(C(=O)Nc2ccccn2)N(C)S(=O)(=O)c2ccccc21 (centres undefined),"inconclusive: 13.5 µM [inhibitor, single point]",
CCn1c(C(C)NC(=O)c2ccc(OC)c(OC)c2)nc2ccccc21 (centres undefined),"inconclusive: 11.7 µM [inhibitor, single point]",
